Laboratory results published in publication PMC11873932.
No constants are given. Whether binding was seen depends on the method and setting. In cells and extracts the contact can be indirect. A yes stands for co-enrichment or nearness to the bait. Other partners may have been found. For some assays here: A no says only that the protein was not detected with the bait. Sequences can lack the tags named with a protein. Each block holds one binder with its values, some of them ahead of it.

Legend:
[1] = molecular target: T1, PSKH1 with C-terminal FLAG tag and TurboID fusion (human) (UniProt P11801); assay: proximity labelling; TurboID: PSKH1-FLAG-TurboID induced with doxycycline (100 ng/mL) overnight in HEL cells, biotin 500 uM for 10 min, Streptavidin capture, trypsin, mass spectrometry; against uninduced cells; parallel experiments with ionomycin
T1 sequence: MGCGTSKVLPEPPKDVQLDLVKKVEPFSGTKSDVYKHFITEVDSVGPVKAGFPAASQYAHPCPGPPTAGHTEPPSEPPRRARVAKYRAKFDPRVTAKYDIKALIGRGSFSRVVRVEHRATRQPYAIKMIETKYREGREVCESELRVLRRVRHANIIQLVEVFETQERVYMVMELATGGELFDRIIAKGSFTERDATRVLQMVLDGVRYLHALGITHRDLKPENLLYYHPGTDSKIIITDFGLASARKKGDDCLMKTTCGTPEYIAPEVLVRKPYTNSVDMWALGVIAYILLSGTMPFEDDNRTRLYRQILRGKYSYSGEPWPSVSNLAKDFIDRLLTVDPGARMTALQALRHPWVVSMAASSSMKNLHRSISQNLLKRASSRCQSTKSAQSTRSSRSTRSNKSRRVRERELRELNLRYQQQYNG

[2] = molecular target: T2, PSKH1 with C-terminal 3C protease-cleavable FLAG tag (human) (UniProt P11801); assay: affinity purification with mass spectrometry; FLAG-IP of PSKH1 with C-terminal 3C-cleavable FLAG from HEK293T lysates on anti-FLAG resin, elution with 3C protease, trypsin, mass spectrometry
T2 sequence: T1 sequence

B2: GOLGA8R, endogenous (protein, UniProt I6L899 1-631)
chain: MAEETQHNKLAAAKKKLKEYWQKNRPRVPAGVNRNRKTNGSIPETATSGGCQPPGDSATGFHREGPTSSATLKDLESPCQERAVVLDSTSVKISRLKNTIKSLKQQKKQVEHQLEEEKKANNERQKAERVLEVQIQTLIIQKEELNTDLYHMERSLRYFEEESKDLAVRLQHSLQCKGELERALSAVIATEKKKANQLSSCSKAHTEWELEQSLQDQALLKAQLTQLKESFQQLQLERDECAEHIEGERARWHQRMSKMSQEICTLKKEKQDMRWVEQLEWSLSKLKNQTAEPLPPEPPAVPSEVELQHLRKELERVAGELQSQVKNNQHISLLNRRQEERIREQEERLRKQEERLQEQHEKLRQLAKPQSVFEELNNENKSTLQLEQQVKELQEKLGEEHLEVASQQNQQLTAQLSLMALPGEGHGGEHLDSEGEEAPQPMPSVPEDPESREAMSSFMDHLKEKADLSELLKKQELRFIQYWQERCHQKIHHLLSEPGGRAKDAALGGGHHQAGAQGGDEGEAAGAAADGIAAYSNYNNGHRKFLAAAHNSADEPGPGAPAPQELGAADKHGDLREVTLTSSAQGEAREDPLLDKPTAQPIVQDHQEHPGLGSNCCVPLFCWAWLPRRRR
binding [1]: binds

B3: PSKH2, endogenous (protein, UniProt Q96QS6 1-385)
chain: MGCGASRKVVPGPPALAWAKHEGQNQAGVGGAGPGPEAAAQAAQRIQVARFRAKFDPRVLARYDIKALIGTGSFSRVVRVEQKTTKKPFAIKVMETREREGREACVSELSVLRRVSHRYIVQLMEIFETEDQVYMVMELATGGELFDRLIAQGSFTERDAVRILQMVADGIRYLHALQITHRNLKPENLLYYHPGEESKILITDFGLAYSGKKSGDWTMKTLCGTPEYIAPEVLLRKPYTSAVDMWALGVITYALLSGFLPFDDESQTRLYRKILKGKYNYTGEPWPSISHLAKDFIDKLLILEAGHRMSAGQALDHPWVITMAAGSSMKNLQRAISRNLMQRASPHSQSPGSAQSSKSHYSHKSRHMWSKRNLRIVESPLSALL
binding [1]: no binding

B5: Cdc37 (protein, UniProt Q16543 1-378)
chain: MVDYSVWDHIEVSDDEDETHPNIDTASLFRWRHQARVERMEQFQKEKEELDRGCRECKRKVAECQRKLKELEVAEGGKAELERLQAEAQQLRKEERSWEQKLEEMRKKEKSMPWNVDTLSKDGFSKSMVNTKPEKTEEDSEEVREQKHKTFVEKYEKQIKHFGMLRRWDDSQKYLSDNVHLVCEETANYLVIWCIDLEVEEKCALMEQVAHQTIVMQFILELAKSLKVDPRACFRQFFTKIKTADRQYMEGFNDELEAFKERVRGRAKLRIEKAMKEYEEEERKKRLGPGGLDPVEVYESLPEELQKCFDVKDVQMLQDAISKMDPTDAKYHMQRCIDSGLWVPNSKASEAKEGEEAGPGDPLLEAVPKTGDEKDVSV
binding [2]: binds

Now from value to binder:

binding [1]: binds
B1: Reticulocalbin-3 (RCN3), endogenous (protein, UniProt Q96D15 21-328)
chain: KPSPDAGPHGQGRVHQAAPLSDAPHDDAHGNFQYDHEAFLGREVAKEFDQLTPEESQARLGRIVDRMDRAGDGDGWVSLAELRAWIAHTQQRHIRDSVSAAWDTYDTDRDGRVGWEELRNATYGHYAPGEEFHDVEDAETYKKMLARDERRFRVADQDGDSMATREELTAFLHPEEFPHMRDIVIAETLEDLDRNKDGYVQVEEYIADLYSAEPGEEEPAWVQTERQQFRDFRDLNKDGHLDGSEVGHWVLPPAQDQPLVEANHLLHESDTDKDGRLSKAEILGNWNMFVGSQATNYGEDLTRHHDEL

binding [2]: binds
B4: Reticulocalbin-1 (RCN1) (protein, UniProt Q15293 30-331)
chain: KPTVRKERVVRPDSELGERPPEDNQSFQYDHEAFLGKEDSKTFDQLTPDESKERLGKIVDRIDNDGDGFVTTEELKTWIKRVQKRYIFDNVAKVWKDYDRDKDDKISWEEYKQATYGYYLGNPAEFHDSSDHHTFKKMLPRDERRFKAADLNGDLTATREEFTAFLHPEEFEHMKEIVVLETLEDIDKNGDGFVDQDEYIADMFSHEENGPEPDWVLSEREQFNEFRDLNKDGKLDKDEIRHWILPQDYDHAQAEARHLVYESDKNKDEKLTKEEILENWNMFVGSQATNYGEDLTKNHDEL
